{
  "sequences": {"note": "Sequences of proteins named here, by UniProt entry; tags and fusion partners are left off.", "UniProt Q14191, whole entry, looked up": "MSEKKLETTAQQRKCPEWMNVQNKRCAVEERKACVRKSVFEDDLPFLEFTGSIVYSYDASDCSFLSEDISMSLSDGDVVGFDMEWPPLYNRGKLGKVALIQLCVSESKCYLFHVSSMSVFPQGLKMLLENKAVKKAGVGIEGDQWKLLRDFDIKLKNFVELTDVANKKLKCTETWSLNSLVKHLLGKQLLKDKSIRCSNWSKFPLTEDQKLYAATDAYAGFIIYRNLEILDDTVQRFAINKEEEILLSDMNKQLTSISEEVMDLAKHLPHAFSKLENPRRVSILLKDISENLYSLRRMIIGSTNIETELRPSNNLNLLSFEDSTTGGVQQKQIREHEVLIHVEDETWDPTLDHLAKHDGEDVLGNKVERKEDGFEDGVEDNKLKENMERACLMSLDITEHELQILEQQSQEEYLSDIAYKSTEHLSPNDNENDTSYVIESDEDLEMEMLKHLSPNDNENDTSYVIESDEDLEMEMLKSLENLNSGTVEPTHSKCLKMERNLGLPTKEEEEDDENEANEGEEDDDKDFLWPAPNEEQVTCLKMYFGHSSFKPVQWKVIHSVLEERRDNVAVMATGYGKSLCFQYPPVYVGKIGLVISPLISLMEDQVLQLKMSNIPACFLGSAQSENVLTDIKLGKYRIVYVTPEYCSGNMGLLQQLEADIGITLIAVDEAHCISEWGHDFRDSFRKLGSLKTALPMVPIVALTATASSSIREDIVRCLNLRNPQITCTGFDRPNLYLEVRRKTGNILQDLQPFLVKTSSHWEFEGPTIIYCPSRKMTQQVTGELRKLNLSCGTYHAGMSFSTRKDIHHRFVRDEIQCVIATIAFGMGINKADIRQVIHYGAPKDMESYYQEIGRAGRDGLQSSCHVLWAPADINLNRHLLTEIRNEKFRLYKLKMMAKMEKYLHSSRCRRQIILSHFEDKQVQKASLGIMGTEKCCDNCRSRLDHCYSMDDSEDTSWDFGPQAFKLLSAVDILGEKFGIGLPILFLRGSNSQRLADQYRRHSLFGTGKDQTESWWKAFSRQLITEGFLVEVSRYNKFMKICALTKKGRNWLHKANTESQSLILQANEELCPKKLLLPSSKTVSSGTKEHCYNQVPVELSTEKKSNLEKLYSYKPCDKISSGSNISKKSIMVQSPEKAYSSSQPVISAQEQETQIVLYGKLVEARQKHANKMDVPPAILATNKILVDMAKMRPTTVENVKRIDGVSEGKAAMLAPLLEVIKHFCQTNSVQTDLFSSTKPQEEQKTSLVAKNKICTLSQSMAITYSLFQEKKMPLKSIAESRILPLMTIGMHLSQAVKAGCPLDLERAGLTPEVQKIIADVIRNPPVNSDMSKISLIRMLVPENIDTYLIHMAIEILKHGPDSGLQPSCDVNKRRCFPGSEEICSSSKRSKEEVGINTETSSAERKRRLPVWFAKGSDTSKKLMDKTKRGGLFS"},
  "source": "PubChem BioAssay AID651768",
  "about": "(National Center for Advancing Translational Sciences (NCATS), 2012)",
  "note": "Hit rate of the full screen: of about 360,000 compounds, about 1,700 (0.47%) were called active. This list was built around the results that the source calls inconclusive (neither active nor inactive); the mix of calls is not that of the screen. Calls come from the whole dose curve; as a rule, active = well fitted inhibition curve with a large enough effect; inconclusive = small, poorly fitted or top-dose-only effect; inactive = no such curve, though single readings can be large or run the other way. Where the call is inconclusive, the potency comes from a doubtful curve fit. Potency is the fitted concentration of half-maximal effect.",
  "data": [
    {"molecular_target": "Bifunctional 3'-5' exonuclease/ATP-dependent helicase WRN (Homo sapiens) (UniProt Q14191)", "test": "qHTS for Inhibitors of WRN Helicase; note: nearly all actives have a fitted effect of over 55% in size", "settings": "WRN helicase unwinding, fluorescent forked duplex, kinetic; series mostly up to 114 µM", "procedure,_shortened": "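Kinetic fluorescence helicase assay: unwinding of a quenched forked DNA duplex (100 nM final) with 2 mM ATP final raises red fluorescence (525/598 nm). Compounds sat 15 min at room temperature with 20 nM WRN beforehand.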", "values": [
      {"smiles": "COc1ccc(C(=O)Nc2cccc(/C=C(/CCC(=O)O)c3nc4ccccc4s3)c2)cc1", "Potency": "inconclusive: 10 µM [inhibitor, full curve]"},
      {"smiles": "CCN(CC)CCCNc1nc2ccccc2c2[nH]c3ccc(OC)cc3c12", "Potency": "active: 25.1 µM"},
      {"smiles": "COC(=O)c1ccc2c(c1)C(C)(C)C(/C=C/c1ccc(OC)c(OC)c1OC)=[N+]2C", "Potency": "active: 50.1 µM"},
      {"smiles": "CS(=O)(=O)N1CCN(c2ccc([N+](=O)[O-])c(NCc3ccc(Cl)cc3)c2)CC1", "Potency": "inconclusive: 11.2 µM [inhibitor, full curve]"},
      {"smiles": "Cc1c(Cl)cccc1NC(=O)CNc1cccc(S(=O)(=O)N(C)C)c1", "Potency": "inactive"},
      {"smiles": "Cc1ccc(S(=O)(=O)N2CCN(CC(=O)N/N=C/c3ccco3)CC2)cc1", "Potency": "inactive"},
      {"smiles": "O=C(CSc1ccc(Br)c2cccc(Cl)c12)Nc1ccc(S(=O)(=O)Nc2nccs2)cc1", "Potency": "active: 35.5 µM"},
      {"smiles": "O=C1C=C(N2CCN(c3ccccn3)CC2)C(=O)c2c(O)ccc(O)c21", "Potency": "inconclusive: 14.1 µM [inhibitor, single point]"},
      {"smiles": "COc1ccccc1NC(=O)CCC(=O)Nc1ccccc1OC", "Potency": "inactive"},
      {"smiles": "CC(=O)Nc1ccc(NC(=S)NC(=O)/C=C/c2ccco2)cc1", "Potency": "inconclusive: 44.7 µM [inhibitor, partial curve]"},
      {"smiles": "O=[N+]([O-])c1cccc(-c2ccc(/C=N/NC(=S)Nc3cccc(F)c3)o2)c1", "Potency": "inconclusive: 3.55 µM [inhibitor, full curve, poor fit]"},
      {"smiles": "CCCn1c(SCC(=O)N2CCCC(C)C2)nnc1-c1cccnc1", "note": "(centres undefined)", "Potency": "inactive"},
      {"smiles": "O=C(O)/C=C/C(=O)NC1CCCCC1", "Potency": "inconclusive: 14.1 µM [inhibitor, single point]"},
      {"smiles": "O=C(O)c1cc(Cl)ccc1OS(=O)(=O)c1ccc(Cl)s1", "Potency": "inconclusive: 17.8 µM [inhibitor, single point]"},
      {"smiles": "O=C(COc1ccccc1[N+](=O)[O-])Nc1ccccc1N1CCCCC1", "Potency": "inconclusive: 79.4 µM [inhibitor, single point]"},
      {"smiles": "COC(=O)C(C(C)=O)C1=C/C(=N\\S(=O)(=O)c2ccc(C)cc2)c2ccccc2C1=O", "note": "(centres undefined)", "Potency": "inactive"},
      {"smiles": "COc1cccc(C(=O)C2CCCN(CC3=Cc4cc(OC)ccc4OC3)C2)c1", "note": "(centres undefined)", "Potency": "inconclusive: 31.6 µM [inhibitor, single point]"},
      {"smiles": "CC(=O)Nc1ccc(Nc2nc(-c3ccccc3)nc3ccccc23)cc1", "Potency": "inconclusive: 79.4 µM [inhibitor, partial curve]"},
      {"smiles": "Brc1ccc(C2=CC(c3ccco3)n3ncnc3N2)cc1", "note": "(centres undefined)", "Potency": "inconclusive: 39.8 µM [inhibitor, full curve, poor fit]"},
      {"smiles": "Cc1ccc(S(=O)(=O)N2[C@@H](c3ccc(C(C)(C)C)cc3)C(C(=O)O)=CC[C@H]2c2ccc(Cl)cc2)cc1", "Potency": "inconclusive: 70.8 µM [inhibitor, single point]"},
      {"smiles": "COc1cc(NC(=O)CSc2nccc(C)n2)c(C(=O)O)cc1OC", "Potency": "inactive"},
      {"smiles": "CCCN(CC(=O)Nc1ccccc1OC)C(=O)CCNC(=O)c1ccccc1OC", "Potency": "inconclusive: 17.8 µM [inhibitor, single point]"},
      {"smiles": "O=C(c1ccco1)N1CCN(C2CN(Cc3ccccc3)S(=O)(=O)C2)CC1", "note": "(centres undefined)", "Potency": "inactive"},
      {"smiles": "Cc1c(-c2cccc(Cl)c2)nc2ccccc2c1C(=O)OC/C(O)=C(\\C#N)c1nc2ccccc2[nH]1", "Potency": "inconclusive: 28.2 µM [inhibitor, single point]"},
      {"smiles": "CC(CCc1ccco1)NC(=O)CSc1cc(=O)n(C)c2ccccc12", "note": "(centres undefined)", "Potency": "inactive"},
      {"smiles": "Cc1ccc(S(=O)(=O)Oc2ccc(C3C4=C(CCCC4=O)N(CCC(=O)O)C4=C3C(=O)CCC4)cc2Cl)cc1", "Potency": "inconclusive: 10 µM [inhibitor, partial curve]"},
      {"smiles": "CC1=C(CO)C(=O)OC([C@@H](C)C2CC[C@H]3C4C[C@H]5O[C@]56[C@@H](O)C=CC(=O)[C@]6(C)C4CC[C@]23C)C1", "note": "(some centres undefined)", "Potency": "inconclusive: 50.1 µM [inhibitor, partial curve]"},
      {"smiles": "COc1cc(C=NNC(=O)c2ccccc2-n2cccc2)ccc1O", "Potency": "inconclusive: 44.7 µM [inhibitor, full curve, poor fit]"},
      {"smiles": "CC1(C)CC(=O)C2=C(C1)OC(N)=C(C#N)C2c1cc2c(cc1[N+](=O)[O-])OCO2", "note": "(centres undefined)", "Potency": "inconclusive: 14.1 µM [inhibitor, single point]"},
      {"smiles": "COc1cc(C2C(C#N)=C(N)Oc3n[nH]c(-c4cccnc4)c32)cc(Br)c1O", "note": "(centres undefined)", "Potency": "inactive"},
      {"smiles": "Cc1ccc(C)c(CSc2nnc(-c3ccccn3)n2N)c1", "Potency": "inactive"},
      {"smiles": "COc1ccccc1-n1c(CNC(=O)c2ccco2)nnc1SCC(=O)Nc1cc(C)ccc1C", "Potency": "inactive"},
      {"smiles": "CC(=O)N(c1ccc2oc(=O)sc2c1)S(=O)(=O)c1cccc2cccnc12", "Potency": "inconclusive: 10 µM [inhibitor, full curve, poor fit]"},
      {"smiles": "CC1NC(=O)NC1CCCCCC(=O)Nc1ccc(F)c(Cl)c1", "note": "(centres undefined)", "Potency": "inactive"},
      {"smiles": "COC(=O)N/N=C(C)/C=C/c1ccccc1", "Potency": "inactive"},
      {"smiles": "Cc1ccc(C(CCN(Cc2ccccc2)C(=O)c2ccco2)c2ccco2)cc1", "note": "(centres undefined)", "Potency": "inconclusive: 17.8 µM [inhibitor, single point]"},
      {"smiles": "O=C(Nc1ccccc1C(=O)N1CCCCC1)c1cc(F)c(F)cc1Cl", "Potency": "inconclusive: 89.1 µM [inhibitor, single point]"},
      {"smiles": "CC1(C)CC(=O)C=C(Nc2cccc(F)c2)C1", "Potency": "inactive"},
      {"smiles": "COc1ccc2ccc3c(c2c1)N=CC1(O3)N(C)c2ccccc2C1(C)C", "note": "(centres undefined)", "Potency": "active: 79.4 µM"},
      {"smiles": "COc1ccc(C(C)=O)cc1CN1C(=O)NC(c2ccccc2)(c2ccccc2)C1=O", "Potency": "inconclusive: 12.6 µM [inhibitor, partial curve]"},
      {"smiles": "CC(C)OC(=O)CC(=O)c1sc2nc3c(cc2c1N)CN(C)CC3", "Potency": "inconclusive: 50.1 µM [inhibitor, partial curve]"},
      {"smiles": "Cc1ccc(C(=O)NC(=C(Cl)Cl)S(=O)(=O)c2ccc(C)cc2)cc1", "Potency": "inconclusive: 31.6 µM [inhibitor, single point]"},
      {"smiles": "Cc1[nH]c2ccccc2c1N=Nc1cccc(C(=O)O)c1", "Potency": "inconclusive: 39.8 µM [inhibitor, partial curve]"},
      {"smiles": "CCN(CC)CCCNc1nc2cc(OC)c(OC)cc2c2nc(-c3ccccc3)nn12", "Potency": "active: 35.5 µM"}
    ]}
  ]
}
